# Source: US20070117868A1, “Use of n-arylhydrazine derivatives for combating non-crop pests” (priority 2004, published 2007)
# Some results were stated once for a whole list of compounds, not compound by compound.
# What was measured:
# Format in all cases: in vivo
# [1] = test system: Linepithema humile; assay: Activity via glass contact, Argentine ant; conditions: rate 10 ppm
# [2] = test system: Pogonomyrmex californicus; assay: Activity via glass contact, harvester ant; conditions: rate 10 ppm
# [3] = test system: Blattella germanica; assay: Activity via glass contact, German cockroach; conditions: rate 100 ppm
# [4] = test system: Linepithema humile; assay: Activity via soil contact, Argentine ant; conditions: rate 0.1 w %
# [5] = test system: Reticulitermes flavipes; assay: Activity via soil contact, subterranean termite; conditions: rate 0.005 w %
# [6] = test system: Linepithema humile; assay: Activity via bait, Argentine ant; conditions: rate 1.0 w %
# [7] = test system: Camponotus floridanus; assay: Activity via bait, carpenter ant; conditions: rate 2.0 w %
# [8] = test system: Reticulitermes flavipes; assay: Activity via bait (treated filter paper), subterranean termite; conditions: rate 0.1 w %
# [9] = test system: Blattella germanica; assay: Activity via bait, German cockroach; conditions: rate 0.3 w %
Compound,Days or Hours to achieve 100% mortality [1] [days],Days or Hours to achieve 100% mortality [2] [days],Days or Hours to achieve 100% mortality [3] [h],Days or Hours to achieve 100% mortality [4] [days],Days or Hours to achieve 100% mortality [5] [days],Days or Hours to achieve 100% mortality [6] [days],Days or Hours to achieve 100% mortality [7] [days],Days or Hours to achieve 100% mortality [8] [days],Days or Hours to achieve 100% mortality [9] [days]
"CCN/C(=N\Nc1c(Cl)cc(C(F)(F)F)cc1Cl)C(C)(C)C [Compound I-1, N-ethyl-2,2-dimethylpropionamide-2-(2,6-dichloro-α,α,α-trifluoro-p-tolyl)-hydrazone]",1 to 2,2 to 3,5 to 24,1 to 2,1 to 3,2 to 3,1 to 3,1 to 2,1 to 2
"CCN/C(=N\Nc1c(Cl)cc(C(F)(F)F)cc1Cl)C1(C)CC1(Cl)Cl (stereo not drawn) [Compound I-2, N-Ethyl-2,2-dichloro-1-methylcyclopropanecarboxamide-2-(2,6-dichloro-α,α,α-tri-fluoro-p-tolyl)hydrazone]",1 to 2,2 to 3,5 to 24,1 to 2,1 to 3,2 to 3,1 to 3,1 to 2,1 to 2
